Assay results published in patent US20060270648A1, “USE OF POLYAMINES WITH ANTIBIOTICS” (priority 2005, published 2006).
For some of these results: For at least one compound, name, drawing or mass did not settle the structure. Some results were stated once for a whole list of compounds, not compound by compound.

Experiments:
[1] = test system: clinical isolates of P. aeruginosa; test: MIC of antibiotics against clinical isolates of P. aeruginosa with or without polyamines (FIG. 2); assay type: cell-based; settings: similar or increased
[2] = test system: E. coli (K10, K12, C921-61); test: MIC of antibiotics against E. coli strains with or without polyamines (FIG. 3); further: test concentration or dose not given here; assay type: cell-based; settings: E. coli K10, K12, C921-61 and S. typhimurium LT2

Compound | increase of MIC values of the clinical isolates in the presence of polyamines [1] | susceptibility with the combination of polyamines and antibiotics [2]
Polymyxin B | up to 4 fold | –
Gentamicin | up to 4 fold | –
NC[C@H]1O[C@H](O[C@H]2[C@H](O)[C@@H](O[C@H]3O[C@H](CO)[C@@H](O)[C@H](N)[C@H]3O)[C@H](N)C[C@@H]2N)[C@H](O)[C@@H](O)[C@@H]1O [Kanamycin] | – | improved susceptibility
CN(C)[C@@H]1C(O)=C(C(N)=O)C(=O)[C@@]2(O)C(O)=C3C(=O)c4c(O)cccc4[C@@](C)(O)[C@H]3C[C@@H]12 [Tetracycline] | – | improved susceptibility
